{"sequences": {"note": "Amino acid sequences for entries named in this document (tags omitted). A change or cut given only in a name is not applied to a line headed by its entry.", "UniProt O00170": "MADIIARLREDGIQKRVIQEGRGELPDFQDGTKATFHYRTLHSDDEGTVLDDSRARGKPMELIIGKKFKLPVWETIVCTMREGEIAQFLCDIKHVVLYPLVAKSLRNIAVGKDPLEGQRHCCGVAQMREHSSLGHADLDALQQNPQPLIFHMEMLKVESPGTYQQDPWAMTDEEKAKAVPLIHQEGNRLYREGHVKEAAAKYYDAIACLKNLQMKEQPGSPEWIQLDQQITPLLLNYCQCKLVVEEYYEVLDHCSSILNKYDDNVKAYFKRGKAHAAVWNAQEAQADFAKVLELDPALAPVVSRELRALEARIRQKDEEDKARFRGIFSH", "UniProt P09917": "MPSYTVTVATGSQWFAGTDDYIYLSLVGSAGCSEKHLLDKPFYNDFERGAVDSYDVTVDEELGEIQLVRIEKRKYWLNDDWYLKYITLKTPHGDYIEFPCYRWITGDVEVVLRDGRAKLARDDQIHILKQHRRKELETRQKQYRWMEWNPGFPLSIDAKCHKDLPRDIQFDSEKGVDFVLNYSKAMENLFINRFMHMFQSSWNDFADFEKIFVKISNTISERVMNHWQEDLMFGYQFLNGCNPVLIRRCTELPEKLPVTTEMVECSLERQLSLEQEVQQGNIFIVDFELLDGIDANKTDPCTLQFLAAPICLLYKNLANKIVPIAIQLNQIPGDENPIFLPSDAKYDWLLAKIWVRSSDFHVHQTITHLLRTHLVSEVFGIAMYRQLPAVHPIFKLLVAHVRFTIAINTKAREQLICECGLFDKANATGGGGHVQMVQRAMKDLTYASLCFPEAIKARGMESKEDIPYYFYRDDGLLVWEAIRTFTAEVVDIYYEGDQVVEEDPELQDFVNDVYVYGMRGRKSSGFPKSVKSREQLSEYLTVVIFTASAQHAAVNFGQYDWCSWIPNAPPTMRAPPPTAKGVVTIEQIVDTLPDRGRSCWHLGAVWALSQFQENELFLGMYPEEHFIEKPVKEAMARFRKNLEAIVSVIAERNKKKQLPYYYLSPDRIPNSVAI", "UniProt Q9UJX5, whole entry, looked up": "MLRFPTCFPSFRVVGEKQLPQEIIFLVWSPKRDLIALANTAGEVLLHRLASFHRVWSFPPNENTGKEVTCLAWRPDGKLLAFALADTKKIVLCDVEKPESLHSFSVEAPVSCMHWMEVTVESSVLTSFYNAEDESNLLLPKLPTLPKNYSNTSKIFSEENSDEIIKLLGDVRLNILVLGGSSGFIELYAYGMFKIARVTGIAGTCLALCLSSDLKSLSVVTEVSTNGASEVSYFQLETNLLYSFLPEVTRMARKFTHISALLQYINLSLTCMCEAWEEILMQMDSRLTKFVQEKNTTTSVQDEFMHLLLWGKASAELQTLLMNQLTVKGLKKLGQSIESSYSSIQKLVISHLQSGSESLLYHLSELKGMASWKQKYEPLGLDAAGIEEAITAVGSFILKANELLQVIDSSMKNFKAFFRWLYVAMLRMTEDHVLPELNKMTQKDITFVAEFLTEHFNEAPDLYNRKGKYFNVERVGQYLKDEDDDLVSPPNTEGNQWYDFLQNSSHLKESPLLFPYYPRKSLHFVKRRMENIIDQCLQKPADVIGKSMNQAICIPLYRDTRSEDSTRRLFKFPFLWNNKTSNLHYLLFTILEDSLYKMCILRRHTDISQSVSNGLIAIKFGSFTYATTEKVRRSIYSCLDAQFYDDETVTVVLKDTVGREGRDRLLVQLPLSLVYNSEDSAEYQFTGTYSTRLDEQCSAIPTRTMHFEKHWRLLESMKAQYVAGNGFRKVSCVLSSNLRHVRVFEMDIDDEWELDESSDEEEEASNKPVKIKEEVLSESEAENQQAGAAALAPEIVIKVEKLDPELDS", "UniProt Q9UJX3, whole entry, looked up": "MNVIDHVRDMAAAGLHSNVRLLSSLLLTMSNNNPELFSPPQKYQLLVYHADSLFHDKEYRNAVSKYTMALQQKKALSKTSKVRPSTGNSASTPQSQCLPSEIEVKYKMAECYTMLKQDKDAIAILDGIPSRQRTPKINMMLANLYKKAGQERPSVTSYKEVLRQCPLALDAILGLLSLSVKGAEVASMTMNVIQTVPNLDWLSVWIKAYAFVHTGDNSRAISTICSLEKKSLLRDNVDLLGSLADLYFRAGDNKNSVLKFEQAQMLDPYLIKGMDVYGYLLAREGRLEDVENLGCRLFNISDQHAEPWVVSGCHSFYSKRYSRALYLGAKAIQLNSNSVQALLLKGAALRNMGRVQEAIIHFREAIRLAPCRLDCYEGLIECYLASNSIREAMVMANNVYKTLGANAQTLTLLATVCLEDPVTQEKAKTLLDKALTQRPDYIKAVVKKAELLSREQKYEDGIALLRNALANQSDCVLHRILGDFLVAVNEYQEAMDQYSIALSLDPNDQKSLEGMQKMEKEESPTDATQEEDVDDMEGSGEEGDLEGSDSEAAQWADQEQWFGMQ", "UniProt P30038": "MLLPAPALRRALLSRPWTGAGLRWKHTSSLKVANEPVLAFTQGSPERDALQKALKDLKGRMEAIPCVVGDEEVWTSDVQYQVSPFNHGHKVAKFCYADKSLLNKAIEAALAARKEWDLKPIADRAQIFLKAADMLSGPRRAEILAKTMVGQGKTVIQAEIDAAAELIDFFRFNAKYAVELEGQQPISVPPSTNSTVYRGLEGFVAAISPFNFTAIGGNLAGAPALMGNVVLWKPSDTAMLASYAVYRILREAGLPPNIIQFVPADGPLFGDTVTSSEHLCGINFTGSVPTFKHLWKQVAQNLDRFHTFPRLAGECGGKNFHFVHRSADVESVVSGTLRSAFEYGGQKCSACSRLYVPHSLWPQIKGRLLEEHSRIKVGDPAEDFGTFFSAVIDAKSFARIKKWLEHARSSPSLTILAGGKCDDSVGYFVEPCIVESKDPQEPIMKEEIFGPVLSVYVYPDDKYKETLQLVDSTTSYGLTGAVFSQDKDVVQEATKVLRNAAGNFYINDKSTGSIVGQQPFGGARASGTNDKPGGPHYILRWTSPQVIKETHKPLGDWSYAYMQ", "UniProt Q9NYG5, whole entry, looked up": "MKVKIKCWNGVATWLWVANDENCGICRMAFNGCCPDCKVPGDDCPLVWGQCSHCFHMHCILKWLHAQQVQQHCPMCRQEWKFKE", "UniProt P51648": "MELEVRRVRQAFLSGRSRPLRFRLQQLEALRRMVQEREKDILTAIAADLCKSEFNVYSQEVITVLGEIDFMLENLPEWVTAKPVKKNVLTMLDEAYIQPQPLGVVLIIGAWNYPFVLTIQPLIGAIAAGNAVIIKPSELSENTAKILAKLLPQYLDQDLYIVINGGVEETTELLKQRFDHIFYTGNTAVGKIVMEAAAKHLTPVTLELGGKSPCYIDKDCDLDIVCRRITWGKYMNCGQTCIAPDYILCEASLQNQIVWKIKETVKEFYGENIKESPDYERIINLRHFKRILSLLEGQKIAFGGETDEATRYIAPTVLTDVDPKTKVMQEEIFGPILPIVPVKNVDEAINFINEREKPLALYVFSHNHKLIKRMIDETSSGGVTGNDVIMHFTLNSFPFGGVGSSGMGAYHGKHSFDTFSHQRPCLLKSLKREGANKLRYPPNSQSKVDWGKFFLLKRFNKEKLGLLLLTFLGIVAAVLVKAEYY", "UniProt Q9UJX6, whole entry, looked up": "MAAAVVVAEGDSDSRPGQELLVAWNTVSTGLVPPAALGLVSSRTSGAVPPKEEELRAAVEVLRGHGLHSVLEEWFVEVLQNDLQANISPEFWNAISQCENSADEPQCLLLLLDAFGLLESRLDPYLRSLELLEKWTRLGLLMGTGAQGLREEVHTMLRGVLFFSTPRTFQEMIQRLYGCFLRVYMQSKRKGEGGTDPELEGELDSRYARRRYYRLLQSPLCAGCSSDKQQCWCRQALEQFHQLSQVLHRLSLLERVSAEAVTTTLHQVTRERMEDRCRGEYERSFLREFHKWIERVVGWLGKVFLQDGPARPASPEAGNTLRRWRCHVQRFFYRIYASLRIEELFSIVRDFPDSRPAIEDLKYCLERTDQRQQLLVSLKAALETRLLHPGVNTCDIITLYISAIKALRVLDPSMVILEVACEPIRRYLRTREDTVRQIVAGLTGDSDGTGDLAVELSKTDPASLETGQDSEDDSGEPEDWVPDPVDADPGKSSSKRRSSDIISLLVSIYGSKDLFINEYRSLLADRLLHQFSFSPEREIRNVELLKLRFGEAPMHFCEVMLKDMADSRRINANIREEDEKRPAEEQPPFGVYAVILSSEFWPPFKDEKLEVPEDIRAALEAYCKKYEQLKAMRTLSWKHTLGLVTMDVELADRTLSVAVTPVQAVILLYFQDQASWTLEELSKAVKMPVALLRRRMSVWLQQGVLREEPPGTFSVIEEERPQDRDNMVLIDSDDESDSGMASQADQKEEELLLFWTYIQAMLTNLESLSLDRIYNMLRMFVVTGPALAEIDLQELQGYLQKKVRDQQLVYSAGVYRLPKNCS", "UniProt Q9H1A4, whole entry, looked up": "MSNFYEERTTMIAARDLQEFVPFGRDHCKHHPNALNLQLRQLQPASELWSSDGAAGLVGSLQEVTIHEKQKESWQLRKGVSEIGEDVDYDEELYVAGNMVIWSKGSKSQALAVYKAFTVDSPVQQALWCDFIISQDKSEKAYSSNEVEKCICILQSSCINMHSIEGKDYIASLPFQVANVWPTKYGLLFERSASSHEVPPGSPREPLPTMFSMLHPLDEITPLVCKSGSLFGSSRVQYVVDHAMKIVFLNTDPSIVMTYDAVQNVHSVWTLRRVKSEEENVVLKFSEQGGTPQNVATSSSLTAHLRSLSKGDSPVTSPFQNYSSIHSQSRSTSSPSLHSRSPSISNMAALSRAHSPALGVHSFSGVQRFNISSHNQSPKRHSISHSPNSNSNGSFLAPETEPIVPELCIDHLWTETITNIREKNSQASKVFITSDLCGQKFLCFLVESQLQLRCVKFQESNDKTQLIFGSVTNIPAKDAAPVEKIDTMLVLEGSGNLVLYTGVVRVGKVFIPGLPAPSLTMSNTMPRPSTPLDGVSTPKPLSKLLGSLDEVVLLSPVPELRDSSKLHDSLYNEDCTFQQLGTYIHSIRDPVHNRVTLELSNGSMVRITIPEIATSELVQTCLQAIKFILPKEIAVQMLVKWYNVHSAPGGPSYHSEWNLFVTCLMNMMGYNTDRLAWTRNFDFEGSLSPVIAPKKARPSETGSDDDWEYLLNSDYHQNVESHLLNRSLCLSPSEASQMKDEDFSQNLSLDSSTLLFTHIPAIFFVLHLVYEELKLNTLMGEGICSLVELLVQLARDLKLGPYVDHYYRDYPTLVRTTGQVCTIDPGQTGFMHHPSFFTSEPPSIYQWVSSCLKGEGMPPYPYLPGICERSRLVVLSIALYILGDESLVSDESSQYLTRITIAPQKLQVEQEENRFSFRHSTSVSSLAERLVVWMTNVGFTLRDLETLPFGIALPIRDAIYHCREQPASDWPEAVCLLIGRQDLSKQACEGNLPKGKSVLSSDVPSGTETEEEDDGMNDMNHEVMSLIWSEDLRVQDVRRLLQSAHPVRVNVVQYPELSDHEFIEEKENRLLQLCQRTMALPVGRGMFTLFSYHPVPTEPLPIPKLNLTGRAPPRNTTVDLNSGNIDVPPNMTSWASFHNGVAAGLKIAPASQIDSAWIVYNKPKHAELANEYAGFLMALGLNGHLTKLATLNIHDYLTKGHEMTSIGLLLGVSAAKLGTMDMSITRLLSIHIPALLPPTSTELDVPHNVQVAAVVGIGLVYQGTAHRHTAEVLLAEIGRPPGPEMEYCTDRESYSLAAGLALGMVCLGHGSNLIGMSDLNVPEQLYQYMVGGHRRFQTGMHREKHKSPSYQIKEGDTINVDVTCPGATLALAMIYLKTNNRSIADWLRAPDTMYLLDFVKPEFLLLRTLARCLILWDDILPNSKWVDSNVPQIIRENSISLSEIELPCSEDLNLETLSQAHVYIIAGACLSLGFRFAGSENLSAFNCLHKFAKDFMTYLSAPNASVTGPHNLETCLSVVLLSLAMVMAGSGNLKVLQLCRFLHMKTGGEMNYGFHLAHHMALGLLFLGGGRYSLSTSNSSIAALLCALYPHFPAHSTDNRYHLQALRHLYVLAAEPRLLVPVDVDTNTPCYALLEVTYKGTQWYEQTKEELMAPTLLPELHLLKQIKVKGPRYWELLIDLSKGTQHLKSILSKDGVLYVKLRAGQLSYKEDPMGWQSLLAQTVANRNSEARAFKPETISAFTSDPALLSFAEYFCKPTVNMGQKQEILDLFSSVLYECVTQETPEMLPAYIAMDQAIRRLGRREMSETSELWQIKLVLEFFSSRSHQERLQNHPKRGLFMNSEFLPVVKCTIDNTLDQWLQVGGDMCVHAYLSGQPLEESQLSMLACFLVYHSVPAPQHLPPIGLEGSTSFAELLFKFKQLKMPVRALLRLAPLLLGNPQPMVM", "UniProt Q96Q83": "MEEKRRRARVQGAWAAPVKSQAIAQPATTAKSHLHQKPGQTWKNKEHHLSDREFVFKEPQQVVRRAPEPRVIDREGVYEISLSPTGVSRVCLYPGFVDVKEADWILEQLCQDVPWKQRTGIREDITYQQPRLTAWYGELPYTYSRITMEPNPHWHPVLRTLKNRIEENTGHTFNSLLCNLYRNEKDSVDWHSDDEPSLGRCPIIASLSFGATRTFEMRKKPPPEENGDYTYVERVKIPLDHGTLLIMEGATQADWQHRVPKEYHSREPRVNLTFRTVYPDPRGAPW"}, "source": "the supplement of paper PMC12067093", "about": "“Discovery and optimisation of a covalent ligand for TRIM25 and its application to targeted protein ubiquitination” (Chemical Science, 2025)", "compound": "CC1Cc2ccccc2N1C(=O)C1CCCN(C1)C(=O)CCl (mixture of isomers) [TRIM25 ligand 11 (diastereomer mixture)]", "experiment": "probe-labelled cysteine peptide fold change vs DMSO (competition) (log2 fold change); higher = less target engagement (more negative = stronger competition)", "conditions": "THP-1, incubation time: 4 h", "note": "The list shows a part of the results.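 Also: competitive chemoproteomic profiling in live THP-1 cells with an iodoacetamide desthiobiotin (IA-DTB) probe, comparing probe-labelled peptide intensities in compound-treated cells against DMSO-treated controls.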", "data": [{"target": "AIP_O00170_78_FKLPVWETIVCTMR (UniProt O00170)", "values": [{"measurement": "probe-labelled cysteine peptide fold change", "setting": "10 µM", "value": -0.126}, {"measurement": "probe-labelled cysteine peptide fold change", "setting": "50 µM", "value": -0.225}]}, {"target": "AHNAK_Q09666_5502_SSGCDVNLPGVNVK (UniProt Q09666)", "values": [{"measurement": "probe-labelled cysteine peptide fold change", "setting": "10 µM", "value": -0.108}, {"measurement": "probe-labelled cysteine peptide fold change", "setting": "50 µM", "value": -0.216}]}, {"target": "ALDOC_P09972_240_PNMVTPGHACPIK (UniProt P09972)", "values": [{"measurement": "probe-labelled cysteine peptide fold change", "setting": "10 µM", "value": 0.0718}, {"measurement": "probe-labelled cysteine peptide fold change", "setting": "50 µM", "value": 0.0465}]}, {"target": "ALDH9A1_P49189_443_VVAELQAGTCFINNYNVSPVELPFGGYKK (UniProt P49189)", "values": [{"measurement": "probe-labelled cysteine peptide fold change", "setting": "10 µM", "value": -0.0178}, {"measurement": "probe-labelled cysteine peptide fold change", "setting": "50 µM", "value": 0.0155}]}, {"target": "ALDOA_P04075_339_RALANSLACQGK (UniProt P04075)", "values": [{"measurement": "probe-labelled cysteine peptide fold change", "setting": "10 µM", "value": -0.0559}, {"measurement": "probe-labelled cysteine peptide fold change", "setting": "50 µM", "value": -0.0356}]}, {"target": "AHCY_P23526_195_FDNLYGCR (UniProt P23526)", "values": [{"measurement": "probe-labelled cysteine peptide fold change", "setting": "10 µM", "value": 0.0837}, {"measurement": "probe-labelled cysteine peptide fold change", "setting": "50 µM", "value": 0.189}]}, {"target": "ALDH6A1_Q02252_249_LLQDSGAPDGTLNIIHGQHEAVNFICDHPDIK (UniProt Q02252)", "values": [{"measurement": "probe-labelled cysteine peptide fold change", "setting": "10 µM", "value": "-8.54e-05"}, {"measurement": "probe-labelled cysteine peptide fold change", "setting": "50 µM", "value": -0.0374}]}, {"target": "ALOX5_P09917_265_LPVTTEMVECSLER (UniProt P09917)", "values": [{"measurement": "probe-labelled cysteine peptide fold change", "setting": "10 µM", "value": -0.0778}, {"measurement": "probe-labelled cysteine peptide fold change", "setting": "50 µM", "value": -0.088}]}, {"target": "ALAS1_P13196_8_RCPFLSR (UniProt P13196)", "values": [{"measurement": "probe-labelled cysteine peptide fold change", "setting": "10 µM", "value": -0.0974}, {"measurement": "probe-labelled cysteine peptide fold change", "setting": "50 µM", "value": 0.525}]}, {"target": "ALDH1L2_Q3SY69_472_TYDTINPTDGSTICK (UniProt Q3SY69)", "values": [{"measurement": "probe-labelled cysteine peptide fold change", "setting": "10 µM", "value": 0.162}, {"measurement": "probe-labelled cysteine peptide fold change", "setting": "50 µM", "value": 0.131}]}, {"target": "AGPS_O00116_404_YGSVAFPNFEQGVACLR (UniProt O00116)", "values": [{"measurement": "probe-labelled cysteine peptide fold change", "setting": "10 µM", "value": 0.097}, {"measurement": "probe-labelled cysteine peptide fold change", "setting": "50 µM", "value": 0.0288}]}, {"target": "ANAPC4_Q9UJX5_732_KVSCVLSSNLR (UniProt Q9UJX5)", "values": [{"measurement": "probe-labelled cysteine peptide fold change", "setting": "10 µM", "value": -0.0409}, {"measurement": "probe-labelled cysteine peptide fold change", "setting": "50 µM", "value": 0.0694}]}, {"target": "AKR1A1_P14550_187_QIDDILSVASVRPAVLQVECHPYLAQNELIAHCQAR (UniProt P14550)", "values": [{"measurement": "probe-labelled cysteine peptide fold change", "setting": "10 µM", "value": 0.15}, {"measurement": "probe-labelled cysteine peptide fold change", "setting": "50 µM", "value": 0.139}]}, {"target": "ALAD_P13716_162_AGCQVVAPSDMMDGRVEAIK (UniProt P13716)", "values": [{"measurement": "probe-labelled cysteine peptide fold change", "setting": "10 µM", "value": -0.259}, {"measurement": "probe-labelled cysteine peptide fold change", "setting": "50 µM", "value": -0.214}]}, {"target": "ALDH18A1_P54886_88_GDECGLALGR (UniProt P54886)", "values": [{"measurement": "probe-labelled cysteine peptide fold change", "setting": "10 µM", "value": -0.0756}, {"measurement": "probe-labelled cysteine peptide fold change", "setting": "50 µM", "value": -0.0207}]}, {"target": "ALAD_P13716_75_CVLIFGVPSR (UniProt P13716)", "values": [{"measurement": "probe-labelled cysteine peptide fold change", "setting": "10 µM", "value": 0.00691}, {"measurement": "probe-labelled cysteine peptide fold change", "setting": "50 µM", "value": 0.122}]}, {"target": "ANAPC7_Q9UJX3_329_EGRLEDVENLGCR (UniProt Q9UJX3)", "values": [{"measurement": "probe-labelled cysteine peptide fold change", "setting": "10 µM", "value": -0.15}, {"measurement": "probe-labelled cysteine peptide fold change", "setting": "50 µM", "value": -0.00267}]}, {"target": "ALDH4A1_P30038_95_FCYADK (UniProt P30038)", "values": [{"measurement": "probe-labelled cysteine peptide fold change", "setting": "10 µM", "value": 0.00112}, {"measurement": "probe-labelled cysteine peptide fold change", "setting": "50 µM", "value": 0.0311}]}, {"target": "AK2_P54819_42_LAENFCVCHLATGDMLR (UniProt P54819)", "values": [{"measurement": "probe-labelled cysteine peptide fold change", "setting": "10 µM", "value": -0.0797}, {"measurement": "probe-labelled cysteine peptide fold change", "setting": "50 µM", "value": 0.0844}]}, {"target": "ANAPC7_Q9UJX3_131_VRPSTGNSASTPQSQCLPSEIEVK (UniProt Q9UJX3)", "values": [{"measurement": "probe-labelled cysteine peptide fold change", "setting": "10 µM", "value": -0.167}, {"measurement": "probe-labelled cysteine peptide fold change", "setting": "50 µM", "value": -0.378}]}, {"target": "ANAPC11_Q9NYG5_76_WLHAQQVQQHCPMCR (UniProt Q9NYG5)", "values": [{"measurement": "probe-labelled cysteine peptide fold change", "setting": "10 µM", "value": -0.122}, {"measurement": "probe-labelled cysteine peptide fold change", "setting": "50 µM", "value": 0.153}]}, {"target": "AMBRA1_Q9C0C7_1036_GDLVICRPEALNSGVEYYWDQLNETVFTVHSNSR (UniProt Q9C0C7)", "values": [{"measurement": "probe-labelled cysteine peptide fold change", "setting": "10 µM", "value": -0.0165}, {"measurement": "probe-labelled cysteine peptide fold change", "setting": "50 µM", "value": -0.106}]}, {"target": "ANAPC4_Q9UJX5_553_SMNQAICIPLYR (UniProt Q9UJX5)", "values": [{"measurement": "probe-labelled cysteine peptide fold change", "setting": "10 µM", "value": -0.169}, {"measurement": "probe-labelled cysteine peptide fold change", "setting": "50 µM", "value": -0.0125}]}, {"target": "AMACR_Q9UHK6_284_AEWCQIFDGTDACVTPVLTFEEVVHHDHNK (UniProt Q9UHK6)", "values": [{"measurement": "probe-labelled cysteine peptide fold change", "setting": "10 µM", "value": 0.083}, {"measurement": "probe-labelled cysteine peptide fold change", "setting": "50 µM", "value": -0.21}]}, {"target": "ALKBH5_Q6P6C2_100_LFSQDECAK (UniProt Q6P6C2)", "values": [{"measurement": "probe-labelled cysteine peptide fold change", "setting": "10 µM", "value": -0.0108}, {"measurement": "probe-labelled cysteine peptide fold change", "setting": "50 µM", "value": 0.0136}]}, {"target": "ALDH3A2_P51648_226_DCDLDIVCR (UniProt P51648)", "values": [{"measurement": "probe-labelled cysteine peptide fold change", "setting": "10 µM", "value": -0.0107}, {"measurement": "probe-labelled cysteine peptide fold change", "setting": "50 µM", "value": 0.045}]}, {"target": "AKAP9_Q99996_836_QQCIQLNEEIEK (UniProt Q99996)", "values": [{"measurement": "probe-labelled cysteine peptide fold change", "setting": "10 µM", "value": -0.0448}, {"measurement": "probe-labelled cysteine peptide fold change", "setting": "50 µM", "value": 0.113}]}, {"target": "ANAPC10_Q9UM13_78_TLCIYADYK (UniProt Q9UM13)", "values": [{"measurement": "probe-labelled cysteine peptide fold change", "setting": "10 µM", "value": -0.0443}, {"measurement": "probe-labelled cysteine peptide fold change", "setting": "50 µM", "value": 0.201}]}, {"target": "ANAPC2_Q9UJX6_394_LLHPGVNTCDIITLYISAIK (UniProt Q9UJX6)", "values": [{"measurement": "probe-labelled cysteine peptide fold change", "setting": "10 µM", "value": 0.172}, {"measurement": "probe-labelled cysteine peptide fold change", "setting": "50 µM", "value": -0.0274}]}, {"target": "AMACR_Q9UHK6_284+293_AEWCQIFDGTDACVTPVLTFEEVVHHDHNK (UniProt Q9UHK6)", "values": [{"measurement": "probe-labelled cysteine peptide fold change", "setting": "10 µM", "value": 0.0202}, {"measurement": "probe-labelled cysteine peptide fold change", "setting": "50 µM", "value": 0.0575}]}, {"target": "AKAP8_O43823_392+395_IQFACSVCK (UniProt O43823)", "values": [{"measurement": "probe-labelled cysteine peptide fold change", "setting": "10 µM", "value": -0.0142}, {"measurement": "probe-labelled cysteine peptide fold change", "setting": "50 µM", "value": 0.0345}]}, {"target": "AIFM1_O95831_317_SITIIGGGFLGSELACALGR (UniProt O95831)", "values": [{"measurement": "probe-labelled cysteine peptide fold change", "setting": "10 µM", "value": -0.11}, {"measurement": "probe-labelled cysteine peptide fold change", "setting": "50 µM", "value": 0.0297}]}, {"target": "AMFR_Q9UKV5_364_KLPCGHLFHNSCLR (UniProt Q9UKV5)", "values": [{"measurement": "probe-labelled cysteine peptide fold change", "setting": "10 µM", "value": 0.116}, {"measurement": "probe-labelled cysteine peptide fold change", "setting": "50 µM", "value": -0.0427}]}, {"target": "AKAP13_Q12802_2101_FCGQHNQSVNYFK (UniProt Q12802)", "values": [{"measurement": "probe-labelled cysteine peptide fold change", "setting": "10 µM", "value": 0.0734}, {"measurement": "probe-labelled cysteine peptide fold change", "setting": "50 µM", "value": -0.0454}]}, {"target": "ALDH16A1_Q8IZ83_467_DPSVPTGGCK (UniProt Q8IZ83)", "values": [{"measurement": "probe-labelled cysteine peptide fold change", "setting": "10 µM", "value": 0.0518}, {"measurement": "probe-labelled cysteine peptide fold change", "setting": "50 µM", "value": -0.0262}]}, {"target": "AIP_O00170_254_LVVEEYYEVLDHCSSILNK (UniProt O00170)", "values": [{"measurement": "probe-labelled cysteine peptide fold change", "setting": "10 µM", "value": 0.0526}, {"measurement": "probe-labelled cysteine peptide fold change", "setting": "50 µM", "value": -0.326}]}, {"target": "ALOX5_P09917_249_CTELPEK (UniProt P09917)", "values": [{"measurement": "probe-labelled cysteine peptide fold change", "setting": "10 µM", "value": 0.00802}, {"measurement": "probe-labelled cysteine peptide fold change", "setting": "50 µM", "value": 0.134}]}, {"target": "ANAPC1_Q9H1A4_575_LHDSLYNEDCTFQQLGTYIHSIRDPVHNR (UniProt Q9H1A4)", "values": [{"measurement": "probe-labelled cysteine peptide fold change", "setting": "10 µM", "value": 0.233}, {"measurement": "probe-labelled cysteine peptide fold change", "setting": "50 µM", "value": -0.00527}]}, {"target": "ANAPC1_Q9H1A4_962_DAIYHCR (UniProt Q9H1A4)", "values": [{"measurement": "probe-labelled cysteine peptide fold change", "setting": "10 µM", "value": -0.0432}, {"measurement": "probe-labelled cysteine peptide fold change", "setting": "50 µM", "value": 0.323}]}, {"target": "ALAD_P13716_132_TFPNLLVACDVCLCPYTSHGHCGLLSENGAFR (UniProt P13716)", "values": [{"measurement": "probe-labelled cysteine peptide fold change", "setting": "10 µM", "value": 0.0316}, {"measurement": "probe-labelled cysteine peptide fold change", "setting": "50 µM", "value": 0.149}]}, {"target": "ALKBH3_Q96Q83_201_CPIIASLSFGATR (UniProt Q96Q83)", "values": [{"measurement": "probe-labelled cysteine peptide fold change", "setting": "10 µM", "value": -0.0829}, {"measurement": "probe-labelled cysteine peptide fold change", "setting": "50 µM", "value": -0.192}]}]}
